The record followed here is paper doi:10.1101/830802.

Amino acid sequences for entries named in this document (tags omitted).
UniProt P11142: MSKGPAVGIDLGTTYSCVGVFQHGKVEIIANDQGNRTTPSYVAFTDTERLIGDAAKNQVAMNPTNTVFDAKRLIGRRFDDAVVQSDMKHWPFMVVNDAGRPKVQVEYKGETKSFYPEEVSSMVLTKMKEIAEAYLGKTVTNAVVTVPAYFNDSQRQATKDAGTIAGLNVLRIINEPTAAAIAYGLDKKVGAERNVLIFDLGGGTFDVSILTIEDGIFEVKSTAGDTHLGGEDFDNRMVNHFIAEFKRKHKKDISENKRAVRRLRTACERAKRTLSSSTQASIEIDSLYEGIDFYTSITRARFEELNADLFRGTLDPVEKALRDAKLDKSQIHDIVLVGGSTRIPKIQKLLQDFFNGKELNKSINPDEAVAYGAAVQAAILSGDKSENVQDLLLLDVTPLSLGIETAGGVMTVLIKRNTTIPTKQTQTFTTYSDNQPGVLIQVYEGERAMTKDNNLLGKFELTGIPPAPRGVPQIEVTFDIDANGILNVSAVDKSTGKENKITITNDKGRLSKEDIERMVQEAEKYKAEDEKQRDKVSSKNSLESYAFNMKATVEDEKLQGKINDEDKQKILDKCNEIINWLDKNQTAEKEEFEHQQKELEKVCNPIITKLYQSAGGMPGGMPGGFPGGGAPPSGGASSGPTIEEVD
UniProt Q9UJY4: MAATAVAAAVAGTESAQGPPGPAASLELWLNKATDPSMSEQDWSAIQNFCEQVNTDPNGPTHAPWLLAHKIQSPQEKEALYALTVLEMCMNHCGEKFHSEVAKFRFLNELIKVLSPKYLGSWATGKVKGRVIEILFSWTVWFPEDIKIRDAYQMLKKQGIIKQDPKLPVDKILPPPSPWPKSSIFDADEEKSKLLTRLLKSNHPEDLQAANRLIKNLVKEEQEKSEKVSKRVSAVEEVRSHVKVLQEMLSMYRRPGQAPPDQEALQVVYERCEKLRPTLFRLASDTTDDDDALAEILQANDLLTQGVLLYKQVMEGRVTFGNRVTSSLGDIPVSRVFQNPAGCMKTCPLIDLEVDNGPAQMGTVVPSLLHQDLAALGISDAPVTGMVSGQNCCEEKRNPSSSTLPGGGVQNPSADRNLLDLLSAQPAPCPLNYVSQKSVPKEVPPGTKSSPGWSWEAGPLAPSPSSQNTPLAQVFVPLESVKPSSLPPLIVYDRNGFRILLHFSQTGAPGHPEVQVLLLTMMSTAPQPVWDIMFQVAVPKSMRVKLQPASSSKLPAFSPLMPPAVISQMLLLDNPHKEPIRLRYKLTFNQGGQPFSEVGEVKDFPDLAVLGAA

No constants are given. Whether binding was seen depends on the method and setting. In cells and extracts the contact can be indirect. These calls come from enrichment with a bait or labelling near it, and not all partners need be listed. Tags and fused reporters may be left off the sequences shown.

For the test, the target named is T1, GFP-Auxilin (wild type, human) (human) (UniProt O75061).
T1 sequence: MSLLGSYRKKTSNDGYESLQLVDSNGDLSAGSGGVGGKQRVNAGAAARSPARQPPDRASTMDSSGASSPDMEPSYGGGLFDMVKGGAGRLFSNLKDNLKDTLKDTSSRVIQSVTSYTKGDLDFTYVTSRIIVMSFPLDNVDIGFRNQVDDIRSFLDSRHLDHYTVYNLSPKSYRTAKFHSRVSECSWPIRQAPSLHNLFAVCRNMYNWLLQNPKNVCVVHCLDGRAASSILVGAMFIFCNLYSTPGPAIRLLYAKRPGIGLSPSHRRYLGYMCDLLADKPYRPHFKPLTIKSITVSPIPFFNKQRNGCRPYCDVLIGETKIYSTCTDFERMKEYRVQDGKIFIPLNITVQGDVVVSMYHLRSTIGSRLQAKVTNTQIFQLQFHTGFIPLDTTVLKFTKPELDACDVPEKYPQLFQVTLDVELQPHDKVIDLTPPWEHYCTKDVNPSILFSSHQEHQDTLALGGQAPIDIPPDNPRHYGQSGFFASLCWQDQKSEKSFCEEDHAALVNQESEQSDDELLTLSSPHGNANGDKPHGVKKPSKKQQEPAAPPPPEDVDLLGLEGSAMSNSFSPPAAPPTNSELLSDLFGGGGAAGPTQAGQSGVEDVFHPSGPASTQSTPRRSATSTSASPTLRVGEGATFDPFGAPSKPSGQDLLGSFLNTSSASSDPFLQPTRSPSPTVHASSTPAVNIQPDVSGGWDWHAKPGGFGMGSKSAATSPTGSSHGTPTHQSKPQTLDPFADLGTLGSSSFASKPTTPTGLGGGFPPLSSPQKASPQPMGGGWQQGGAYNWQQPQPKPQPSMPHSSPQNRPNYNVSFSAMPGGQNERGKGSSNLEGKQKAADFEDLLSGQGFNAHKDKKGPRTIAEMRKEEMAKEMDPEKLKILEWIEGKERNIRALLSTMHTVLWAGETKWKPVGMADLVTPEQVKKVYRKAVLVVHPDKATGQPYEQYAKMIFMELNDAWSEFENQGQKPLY
In words: affinity purification with mass spectrometry.

For “HSC70, endogenous in HEK293FT (from UniProt P11142 1-646)”, the binding result is given as “binds”. With “GGA2, endogenous in HEK293FT (from UniProt Q9UJY4 1-613)”, the binding entry is on record as “binds”.
